Here are results for 24 compounds from PubChem BioAssay AID248 (DTP/NCI, 2004).

The list does not hold the whole screen: it gathers tests that were run many times, whatever their T/C, doses with no T/C, and many T/C values between a quarter and a half above the control. Further doses and runs are listed elsewhere. T/C is the treated group as % of the vehicle group. Some doses have a count of surviving animals in place of a T/C: the source files T/C as zero there, which appears to mark a toxic dose or a test without result, not a measured value. Some survivor counts are full or nearly so, which does not show that the dose was tolerated: the source hardly ever lists a survival T/C far under the control, and the zero likely stands for such cases as well. Counts of survivors are from the toxicity check (mostly the fifth day) where no day follows; animals may have died later. Schedules are NCI's codes, read here as Q, the interval in days (D) or hours (H), X, the number of doses. Brackets with × stand for listed records that agree. Some entries were tested several times; their values stand side by side, smallest first. Some schedule codes hold Z or #, which are not explained here. For survival time, the PubChem record calls one and a half times the control and up active, and a quarter to a half above the control has no call in these data; cut-offs in other NCI protocols can differ. Some T/C values are followed by the survivors on the day toxicity was checked, most often the fifth; where none is given, no animal had died by that day.

The test system of the test is L1210 leukemia ip in BDF1 mice, survival T/C. In words: NCI In Vivo Anticancer Drug Screen. Data for tumor model L1210 Leukemia (intraperitoneal) in B6D2F1 (BDF1) mice. The following applies: T/C endpoint: mean survival time, higher T/C = longer survival.
[1] abbreviates: dose: 25.0 mg/kg/injection, schedule: Q01DX009 (ip), vehicle: saline.
[2] abbreviates: dose: 50.0 mg/kg/injection, schedule: Q01DX009 (ip), vehicle: saline.
Setting [3] is: dose: 100.0 mg/kg/injection, schedule: Q01DX009 (ip), vehicle: saline.
[4] abbreviates: dose: 200.0 mg/kg/injection, schedule: Q01DX009 (ip), vehicle: saline.
[5] abbreviates: dose: 400.0 mg/kg/injection, schedule: Q01DX009 (ip), vehicle: saline.
The mark [6] stands for this setting: dose: 400.0 mg/kg/injection, schedule: Q01DX001 (ip), vehicle: saline.
Where [7] appears, read: dose: 100.0 mg/kg/injection, schedule: Q01DX009 (ip), vehicle: Klucel (hydroxypropylcellulose) (HPC).
The mark [8] stands for this setting: dose: 400.0 mg/kg/injection, schedule: Q01DX009 (ip), vehicle: Klucel (hydroxypropylcellulose) (HPC).
Setting [9] is: dose: 200.0 mg/kg/injection, schedule: Q04DX002 (ip), vehicle: Klucel (hydroxypropylcellulose) (HPC).

Take `CCCCOC(=O)CCCc1ccc(N(CCCl)CCCl)cc1`: the T/C reads like this: under setting [1], 135 % of control (2×); under setting [2], 125 [9 of 10 alive] and 144 % of control; under setting [3], 130 % of control. The survivor count is on record as 3 of 6 under setting [3], 0 of 6 under setting [4] and 0 of 6 under setting [5].

In the case of `Nc1nc(N)c(-c2ccc(Cl)cc2)c(CCc2ccc(NC(=O)CBr)cc2)n1`, the survivor count is, setting by setting: (dose: 200.0 mg/kg/injection, schedule: Q01DX001 (ip), vehicle: saline) 0 of 4; under setting [6], 0 of 4.

Take `CCOC(=O)C(C(C)=O)C(c1ccc([N+](=O)[O-])cc1)C(C(C)=O)C(=O)OCC` (configuration not stated): the survivor count (dose: 6.25 mg/kg/injection, schedule: Q01DX009 (ip), vehicle: saline) was 6 of 6; the survivor count (dose: 12.5 mg/kg/injection, schedule: Q01DX009 (ip), vehicle: saline) is on record as 5 of 6; the survivor count under setting [1] was 6 of 6 (2×); the survivor count under setting [2] is 6 of 6 (2×); the survivor count under setting [3] is 6 of 6 (2×); the survivor count under setting [4] is listed as 6 of 6. For the same compound, the survivor count under setting [5] is listed as 6 of 6.

For the compound `COc1cc2c(c(OC)c1OC)-c1ccc(SC)c(=O)cc1C(N(C)C)CC2` (configuration not stated), the T/C under setting [7] was 147 % of control. Besides, the survivor count under setting [8] is given as 1 of 6.

For `COc1ccc(C(C#N)N2CCCCC2)cc1` (configuration not stated), under setting [7], the survivor count is 6 of 6.

On to `CC(=O)N\C(N)=N/N=C\C(C)=N/N=C(\N)NC(C)=O`, for which the survivor count (dose: 480.0 mg/kg/injection, schedule: Q01DX Z (ip), vehicle: carboxymethylcellulose (CMC)) is on record as 3 of 6.

Turning to `CCOC(=O)CSc1ccc2ccccc2[n+]1-c1ccccc1`, the survivor count under setting [6] is on record as 1 of 6.

With `O=C(O)/C=C\c1ccccc1`, the survivor count (dose: 400.0 mg/kg/injection, schedule: Q01DX009 (ip), vehicle: other) is 6 of 6.

Regarding `NC(CSC(c1ccccc1)(c1ccccc1)c1ccccc1)C(=O)OC(c1ccccc1)c1ccccc1` (configuration not stated), the T/C runs as follows: (dose: 264.0 mg/kg/injection, schedule: Q01DX001 (ip), vehicle: carboxymethylcellulose (CMC)) 126 % of control; (dose: 600.0 mg/kg/injection, schedule: Q01DX001 (ip), vehicle: carboxymethylcellulose (CMC)) 131 and 137 % of control.

As for `CNC(=O)Oc1ccccc1C(=O)NCO`, under setting [7], the T/C was 110 [5 of 6 alive], 111, 112, 112 % of control [2 of 3 alive]. Moreover, the survivor count by setting is: (dose: 200.0 mg/kg/injection, schedule: Q01DX001 (ip), vehicle: Klucel (hydroxypropylcellulose) (HPC)) 3 of 6; (dose: 200.0 mg/kg/injection, schedule: Q01DX009 (ip), vehicle: Klucel (hydroxypropylcellulose) (HPC)) 0 of 3, 0 of 6, 4 of 6; under setting [9], 2 of 3; (dose: 200.0 mg/kg/injection, schedule: Q04DX003 (ip), vehicle: Klucel (hydroxypropylcellulose) (HPC)) 4 of 6; under setting [8], 0 of 3 and 0 of 6; (dose: 400.0 mg/kg/injection, schedule: Q04DX002 (ip), vehicle: Klucel (hydroxypropylcellulose) (HPC)) 0 of 3 and 0 of 6.

In the case of `CCCCCCc1cccc(C)n1`, the survivor count under setting [6] is given as 1 of 4.

Turning to `CC1N2CC12c1ccccc1` (configuration not stated), the survivor count is 0 of 3 (dose: 100.0 mg/kg/injection, schedule: Q04DX002 (ip), vehicle: saline); 0 of 3 (dose: 200.0 mg/kg/injection, schedule: Q04DX002 (ip), vehicle: saline); 0 of 3 (dose: 400.0 mg/kg/injection, schedule: Q04DX002 (ip), vehicle: saline).

Consider `CCCCCC[N+]1(C)CC2C3C=CC(C3)C2C1` (configuration not stated), for which the survivor count is, setting by setting: (dose: 115.0 mg/kg/injection, schedule: Q04DX003 (ip), vehicle: saline) 2 of 6; (dose: 170.0 mg/kg/injection, schedule: Q04DX003 (ip), vehicle: saline) 0 of 6.

As for `CCCCCCCCNCCCCCCCC`, the survivor count reads like this: (dose: 37.0 mg/kg/injection, schedule: Q01DX009 (ip), vehicle: other) 3 of 6; (dose: 75.0 mg/kg/injection, schedule: Q01DX009 (ip), vehicle: other) 0 of 6; (dose: 150.0 mg/kg/injection, schedule: Q01DX009 (ip), vehicle: other) 0 of 6; (dose: 200.0 mg/kg/injection, schedule: Q01DX001 (ip), vehicle: other) 1 of 4; (dose: 300.0 mg/kg/injection, schedule: Q01DX009 (ip), vehicle: other) 0 of 6; (dose: 400.0 mg/kg/injection, schedule: Q01DX001 (ip), vehicle: other) 0 of 4.

Regarding `CCCN(C(=O)N([Si](C)(C)C)S(=O)(=O)c1ccc(Cl)cc1)[Si](C)(C)C`, the survivor count under setting [4] is given as 3 of 3.

Take `CN(C)C(=S)SSSSC(=S)N(C)C`: the survivor count is 3 of 3 (dose: 100.0 mg/kg/injection, schedule: Q04DX002 (ip), vehicle: Klucel (hydroxypropylcellulose) (HPC)) and 3 of 3 under setting [9].

Regarding `NC1=NC(c2ccccc2)N(c2ccccc2Cl)C(N)=N1` (configuration not stated), the survivor count (dose: 300.0 mg/kg/injection, schedule: Q01DX001 (ip), vehicle: Klucel (hydroxypropylcellulose) (HPC)) is recorded as 0 of 6.

Regarding `CN(Cc1ccccc1)C(=O)NC1CCCCC1`, the T/C (dose: 100.0 mg/kg/injection, schedule: Q01DX009 (ip), vehicle: saline with Tween-80) was 133 % of control.

As for `Cc1nc2c(O)cccc2cc1CO`, the survivor count under setting [8] is listed as 6 of 6.

For `COC1OC2COC(c3ccccc3)OC2C(O)C1NC(C)=O` (configuration not stated), for the setting “dose: 400.0 mg/kg/injection, schedule: Q01DX001 (ip), vehicle: Klucel (hydroxypropylcellulose) (HPC)”, the survivor count was 5 of 5.

For `CC(=O)OC(=O)C1C2CC3C(C2)C31` (configuration not stated), the survivor count runs as follows: (dose: 100.0 mg/kg/injection, schedule: Q04DX003 (ip), vehicle: other) 6 of 6; (dose: 200.0 mg/kg/injection, schedule: Q04DX003 (ip), vehicle: other) 3 of 6; (dose: 400.0 mg/kg/injection, schedule: Q04DX003 (ip), vehicle: other) 0 of 6.

For `CCCCCCCCCC(C)CCCC` (configuration not stated), the survivor count (dose: 400.0 mg/kg/injection, schedule: Q01DX001 (ip), vehicle: saline with Tween-80) is reported as 6 of 6.

As to `C=C(Br)COCC`, the survivor count is 2 of 6 (dose: 50.0 mg/kg/injection, schedule: Q01DX009 (ip), vehicle: acetone) and 0 of 6 (dose: 100.0 mg/kg/injection, schedule: Q01DX009 (ip), vehicle: acetone).

Consider `CN1CCC23CCCCC2C1Cc1ccc(O)cc13` (configuration not stated), for which the survivor count by setting is: (dose: 150.0 mg/kg/injection, schedule: Q01DX001 (ip), vehicle: saline) 1 of 6; (dose: 300.0 mg/kg/injection, schedule: Q01DX001 (ip), vehicle: saline) 0 of 6.
